Laboratory results from article PMC12881857, “The MabZIP5–MaMYB69 module cooperates with MaERF55 to modulate banana fruit ripening via cell wall degradation”.

How the values were obtained:
[1] = system: GST-MabZIP5 (banana); test: competition with a labelled probe; settings: 50-fold excess mutant competitor vs N14; Chemiluminescent EMSA Kit (Beyotime); pH and temperature not stated; recombinant protein; protein details: GST (N-term, pGEX-4T-1)
[2] = system: GST-MabZIP5 (banana); test: EMSA; settings: Chemiluminescent EMSA Kit (Beyotime), pH and temperature not stated, recombinant protein, protein details: GST (N-term, pGEX-4T-1)

“CTTCCATTGTATCGCAGGCGTCAAAAAAGCTTTTGGAGGCTGTCTGCATG (double strand) [MaMYB69 promoter P2 mutant]”: no binding [1].

“CTTCCATTGTATCGCAGGCGTCTACGTAGCTTTTGGAGGCTGTCTGCATG (double strand) [MaMYB69 promoter P2 (A-box)]”: binds ([2]; label: biotin).

“GAGAGAGAGAGGTGGAAGACGACGTCCCCCACCTTTGCTTCCTCGCTTGG (double strand) [MaMYB69 promoter P1]”: binds more weakly ([2]; very faint band, label: biotin).

“GCGAGGGGAATGGTGGGAAGCTCACGTGGGAGAAACATGCGCTGCCGGCC (double strand) [MaPL1 promoter bZIP5 probe (G-box)]”: binds [2].

Construct, isoform or probe ends are uncertain for at least one entry. For some of these results: A negative result means that nothing was seen under these conditions. For some of these results: A weaker result is weaker than the reference pair of the same experiment.
